About 3,700 (7%) of roughly 53,000 sequences were called active.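 Rule for the calls: active = gene knockdowns whose robust z-score for IL-1 alpha signal is at least 2 or at most -2, so actives lie on both sides; inactive = the rest.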 This is one part of the list.

This assay can be described thus: Components of the Cytosolic LPS Sensing Pathway: Gene Identification via Genome-wide siRNA Screen.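 Note: robust z of the log signal after scaling to non-targeting control siRNA wells of the plate.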 The conditions noted are these: RAW264.7 macrophages, IL-1a HTRF, actives lie on both sides, screened at 100 nM (by protocol), cells primed 5 h with Pam3CSK4 first. In a few lines: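 Using IL-1a HTRF as read-out, the screen measured release from RAW264.7 cells after 48h siRNA knockdown (100 nM), 5 h Pam3CSK4 priming and 24 h cytosolic LipidA. Values were expressed relative to negative-control wells as robust z-scores.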
With GGAGACCUUCCAGAACACATT against Mesd, the z-score was active: 2.38.

With CGAGUUAUCCAAUAGCAUCTT against Rab12, the z-score is inactive: -0.402.

With GGUUUGUUUACUCCUUUUGTT against Olfr876, the z-score is inactive: -0.192.

Regarding CCGAAAAUGGUUAGGACAUTT against Kynu, the z-score was inactive: 1.44.

As for GGAAAUUGUAAGAAGCGUATT against Ska2, the z-score is inactive: -1.42.

Turning to GGCCAUCACUAUUAGCCUCTT against Vmn1r70, the z-score was inactive: -0.214.

As for GGAAGUCCACUUUUUUGUGTT against Cpb2, the z-score was inactive: 1.83.

As for GGCUCUGAUGAAUACAACATT against Slc7a6os, the z-score was inactive: -1.3.

As to GGAUCAGGUGUGUGAGUCCTT against Gzmc, the z-score is inactive: -1.37.

Turning to CCAGAAGACCUUUUACCUGTT against Il1rn, the z-score was inactive: 0.678.

For GGAAUAGGACCUAUGUCUGTT against Nr2e1, the z-score was inactive: -0.455.

Consider GGCGGUGAUAUUCUAGAAGTT against Dmxl2, for which the z-score was inactive: 1.65.

In the case of GCCGAUAUUGUGACAAGAUTT against Cd72, the z-score was inactive: 0.352.

As for GGGCUUCAUUAAGGACUGCTT against Ncs1, the z-score was inactive: 1.62.

Regarding GGCUUGGUUCUGGUACCUUTT against Ddx28, the z-score was inactive: -0.984.

GGUUGUGAAGUGAGAAUUCTT against S100pbp: the z-score was inactive: -1.58.

GGAGAUAAUGAAGAAGGUUTT against Mgat5: the z-score was inactive: 0.658.

For CGAACAACCUCAUUUCAUGTT against Atp8b1, the z-score is inactive: 0.9.

As for GCAAUCCAAAGUUUUAAUCTT against Septin7, the z-score was inactive: 0.39.

Regarding GCUAAAAACGAGAUAAGAGTT against Snx2, the z-score is inactive: -0.316.

On to GGAUCAACCUAGAAGCUUGTT against Strada, for which the z-score was inactive: -0.192.

With GGCGUGUCAAAGAAAUUUUTT against Vmn1r171, the z-score is inactive: 0.489.

CCUUGUUCCCUUAUUGUACTT against Olfr362: the z-score is inactive: -0.994.

Turning to GGAUCUUGAGAAGAAGUAUTT against Adcy6, the z-score was inactive: -1.15.

On to GGCCAUCUGCUCCUUUAUUTT against Aqp11, for which the z-score is inactive: -0.2.

As to CGGAAAAAGAAGGACAUCCTT against Mesd, the z-score is inactive: 0.51.

On to GCACGAGAGACAUUUCUCCTT against Kat7, for which the z-score is active: -2.32.

Consider “GGUUCUGGUUGAUAGAGAUTT against 4931428L18Rik”, for which the z-score is inactive: 0.373.

As to CCUCCUAAGGAUGAAGAUUTT against Calml4, the z-score was inactive: 0.654.

Regarding GCUGGUAACAGAAUUUCUUTT against Aox2, the z-score is inactive: 0.515.

Take CCACUGAGCCCAAUGGGUUTT against Nrxn2: the z-score was inactive: -0.0236.

On to GGUAAUGUUUGAAACUUACTT against Actr2, for which the z-score is inactive: 0.000493.

For GGAUAUACUUACGUAACGGTT against Srp9, the z-score was inactive: -0.0154.

As for CCUAAAUUAGUAGGACGGUTT against Cdkn1a, the z-score is inactive: 0.675.

As to CCAUAUUUCAGAUCAGACUTT against Zfp68, the z-score was inactive: 0.364.

On to GGAACCUGUACAGAUAAAGTT against Pam, for which the z-score is inactive: -0.409.

For GCUGAAAUACGCUGACAUCTT against Jdp2, the z-score was inactive: 0.18.

On to GGCAGAAAGAAAUUGAGAATT against Trim42, for which the z-score was inactive: -0.655.

As to CGGGUGCCGGAAAGUUUAUTT against Klf7, the z-score was active: 2.84.

On to CGGUUUCACGAAUUCCUCCTT against Scaper, for which the z-score is active: -2.16.

Turning to GCCAUAAGAUGCUACAGUGTT against Tubb6, the z-score was inactive: 1.53.

For CGAGCCGUUAAACAGUUCUTT against Cyb561a3, the z-score is inactive: 0.0936.

As to GGCAAUUGGAAAUGCCCUGTT against Atp5h, the z-score is inactive: -0.323.

Turning to CCCUCCAUGUCUAAAAAAATT against Kcmf1, the z-score is inactive: -1.19.

In the case of CCUUAACCUGGACAAGUGCTT against Itm2b, the z-score is inactive: 1.12.

Turning to GCUCCUAUUACUGAAUUUATT against Olfr749, the z-score was inactive: -0.445.

On to GGGCUCCACUGUUGUUAUATT against Mid1ip1, for which the z-score is inactive: -0.268.

Take GGCUUUUGUUUUGAGGUAGTT against Zbed3: the z-score was inactive: 1.11.

For the sequence GCGAUCCACGAGAAACAGATT against Prrc1, the z-score is inactive: 0.124.

With GGUUUUCUUCUGAAUACCCTT against Dusp4, the z-score is inactive: 0.402.

With CCAAGUUAGUGGAUGAAUGTT against Ugt2b35, the z-score was inactive: -0.555.

Regarding GGGACAAUGGAGCAAGAUGTT against Fbxo42, the z-score is inactive: -0.923.

For the sequence CCAUCAAAACGAUCAACAATT against Setbp1, the z-score is inactive: -1.24.

With GGACAUUGAACAACACUAUTT against Krt9, the z-score was inactive: -1.17.

In the case of GGUUACUUAGCUUUUCUGATT against Tnfaip2, the z-score is inactive: 0.094.

Take GGUUGGACAAAAUGAUCUUTT against Abhd5: the z-score was inactive: 0.749.

For GCUCGUAAUCUUUAUUGUUTT against Olfr874, the z-score is inactive: 0.527.

UGGACUGUAUUGAAAACCATT against Maf: the z-score was inactive: -1.61.

As for GGACCAGGAUAGGACCAAUTT against Avpr2, the z-score is active: 2.33.

Take GGUGGAGAUGGAAAACAUGTT against Myoz1: the z-score is inactive: 0.95.

As to GGCAGCUUAGCUACUAUUCTT against Zfyve28, the z-score is inactive: 0.58.

Take CGCCUGUGUUUCGUACGUUTT against Mafg: the z-score is inactive: 0.29.

In the case of GGGACACCUAUUUUAUCCATT against St7, the z-score is inactive: -0.154.

On to CCUAAGCCCAAGAUCAUCUTT against Mybph, for which the z-score was inactive: -0.627.

GGAUUCAGCAGACUUUGAATT against Gask1a: the z-score is inactive: 0.385.

As for GGGAUUUCUUACCCUGUUUTT against Prr7, the z-score was inactive: -0.222.

GGUCAACCUCAUGUUACGATT against Card11: the z-score was inactive: -0.864.

As to GCUCAUGAUAUUACCUUCGTT against Olfr601, the z-score was inactive: -1.53.

In the case of GGAAAUGGUAGCCAGAGUGTT against Dcpp1, the z-score is inactive: -1.83.

Regarding GAUAAUAUCUUUGUCUGCUTT against Olfr461, the z-score is inactive: -1.58.

As for GCUGCGUCCUAUGAGUUUATT against Drg2, the z-score is inactive: 1.72.

For GGAGUCGUGUAUUUUGCUGTT against B3gat3, the z-score was inactive: -0.187.

For the sequence GGCGAGACGACACAUUUUCTT against Cdc16, the z-score was inactive: -1.26.

Regarding GGAAAAAGAGCAAAUUACUTT against Kif23, the z-score was inactive: 0.354.

For GCAGAUUUUCCUUGUAGAATT against Smad2, the z-score was inactive: 1.17.

Regarding “CGAUGCAUUCAUUGUCUAUTT against A830073O21Rik”, the z-score is inactive: 0.092.

With GCUUCCUCAAGCGCAUGUATT against Cox10, the z-score is inactive: 1.8.

On to GGCUAAAAACUACCUCCUGTT against Klhl20, for which the z-score was inactive: -0.822.

For GCCGCACUAAAUUCUCUUATT against H2-Oa, the z-score was inactive: 0.3.

Regarding GGAAAAUGUUUCUGAUGAATT against Nfat5, the z-score was inactive: -0.478.

For GCUGCCAAAGUGACAUAGATT against Notch3, the z-score was inactive: 1.35.

Regarding GGUCACUGGAGCUUUAAUATT against Olfr705, the z-score is inactive: 0.53.

On to GGAUGAAGUGUGUUUUGGCTT against Sim1, for which the z-score was inactive: 0.95.

Turning to GGCCACCUAAAACUAUAUATT against Cd59a, the z-score was inactive: -1.94.

For the sequence CCUGAUUCAAAUGCUCUCCTT against Nlrx1, the z-score was inactive: 0.293.

As to CCAUGGGCAUCAAACAUUCTT against Odf3l1, the z-score was inactive: 0.238.

As to GGUUUUAAAGAAGACGGUATT against Cfap298, the z-score is inactive: -0.886.

As for GGCCGUUUCACUACCAUUCTT against Ier2, the z-score was inactive: 0.259.

Turning to GCCUACUUCUGUUAAUUCUTT against Apon, the z-score was inactive: 0.603.

Take GGACAAUCAGACCCUGUCATT against Use1: the z-score is inactive: -0.365.

As to GGAGGUGGAAAAUCUGUACTT against Cdca8, the z-score is inactive: 0.855.

In the case of GGGCGUACCUGUCUUUUCATT against Cpa6, the z-score was inactive: 0.93.

As for GCGAGUUGUAACAUUGCCATT against St14, the z-score is inactive: -0.712.

Turning to GGAGUUUCUGGAAGAGAUCTT against Ube3b, the z-score was inactive: 0.7.

Consider GGAGAUCGCACCUAAGAUUTT against Pgam2, for which the z-score is inactive: 0.22.

Take GGCCAUAUCUUAAAGUUAATT against Hcfc1r1: the z-score is inactive: -0.246.

GGCUUUUGGCUUCAACCCUTT against Slc39a14: the z-score was active: -2.24.

With GGUUCUUGGUGAUGAUGAGTT against Pds5a, the z-score is active: -2.6.

As to GGAGAAUGACCAGCUGAUCTT against Ss18l2, the z-score is inactive: 0.547.

For the sequence CGUAAAGUGACCUUAAGAATT against Lrrfip1, the z-score was inactive: -0.969.

As for GGCUCUGUGAAGAAAGUCATT against Cnn3, the z-score was inactive: 0.462.

Regarding GGCAAUUUGUGGAUUAUUGTT against Olfr1105, the z-score was inactive: -0.458.

In the case of GGAGAACAUCAAGAACAAUTT against Ap2m1, the z-score was active: 2.08.

Turning to GGAGUGGUAUUUUUACAAUTT against Slc34a1, the z-score was inactive: -0.162.

In the case of GGAUCAAAUUACAGAUCUUTT against Eef1e1, the z-score was inactive: 1.81.

GCACAAGACUUUAUAACCATT against Slc25a35: the z-score is inactive: -0.838.

Take GGAAAGAAUGAGGAUGUGGTT against Pitx2: the z-score was active: -2.07.

GGUAAAAGUGGGUAGGAAATT against Ptprh: the z-score was inactive: 0.595.

For the origin of these results see PubChem BioAssay AID1508600 (Functional Genomics Laboratory (NCATS/FGL), 2020).
